According to the supplement of paper PMC10849652:
The other results are listed elsewhere or left out.

Chains of the proteins cited; added tags and fusions are not shown. Lines headed by an entry give the natural chain unless they say otherwise; changes in a name come on top.
UniProt P31949: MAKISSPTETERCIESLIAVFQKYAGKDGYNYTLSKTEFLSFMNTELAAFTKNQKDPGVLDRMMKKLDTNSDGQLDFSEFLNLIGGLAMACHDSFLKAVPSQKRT
UniProt O94885: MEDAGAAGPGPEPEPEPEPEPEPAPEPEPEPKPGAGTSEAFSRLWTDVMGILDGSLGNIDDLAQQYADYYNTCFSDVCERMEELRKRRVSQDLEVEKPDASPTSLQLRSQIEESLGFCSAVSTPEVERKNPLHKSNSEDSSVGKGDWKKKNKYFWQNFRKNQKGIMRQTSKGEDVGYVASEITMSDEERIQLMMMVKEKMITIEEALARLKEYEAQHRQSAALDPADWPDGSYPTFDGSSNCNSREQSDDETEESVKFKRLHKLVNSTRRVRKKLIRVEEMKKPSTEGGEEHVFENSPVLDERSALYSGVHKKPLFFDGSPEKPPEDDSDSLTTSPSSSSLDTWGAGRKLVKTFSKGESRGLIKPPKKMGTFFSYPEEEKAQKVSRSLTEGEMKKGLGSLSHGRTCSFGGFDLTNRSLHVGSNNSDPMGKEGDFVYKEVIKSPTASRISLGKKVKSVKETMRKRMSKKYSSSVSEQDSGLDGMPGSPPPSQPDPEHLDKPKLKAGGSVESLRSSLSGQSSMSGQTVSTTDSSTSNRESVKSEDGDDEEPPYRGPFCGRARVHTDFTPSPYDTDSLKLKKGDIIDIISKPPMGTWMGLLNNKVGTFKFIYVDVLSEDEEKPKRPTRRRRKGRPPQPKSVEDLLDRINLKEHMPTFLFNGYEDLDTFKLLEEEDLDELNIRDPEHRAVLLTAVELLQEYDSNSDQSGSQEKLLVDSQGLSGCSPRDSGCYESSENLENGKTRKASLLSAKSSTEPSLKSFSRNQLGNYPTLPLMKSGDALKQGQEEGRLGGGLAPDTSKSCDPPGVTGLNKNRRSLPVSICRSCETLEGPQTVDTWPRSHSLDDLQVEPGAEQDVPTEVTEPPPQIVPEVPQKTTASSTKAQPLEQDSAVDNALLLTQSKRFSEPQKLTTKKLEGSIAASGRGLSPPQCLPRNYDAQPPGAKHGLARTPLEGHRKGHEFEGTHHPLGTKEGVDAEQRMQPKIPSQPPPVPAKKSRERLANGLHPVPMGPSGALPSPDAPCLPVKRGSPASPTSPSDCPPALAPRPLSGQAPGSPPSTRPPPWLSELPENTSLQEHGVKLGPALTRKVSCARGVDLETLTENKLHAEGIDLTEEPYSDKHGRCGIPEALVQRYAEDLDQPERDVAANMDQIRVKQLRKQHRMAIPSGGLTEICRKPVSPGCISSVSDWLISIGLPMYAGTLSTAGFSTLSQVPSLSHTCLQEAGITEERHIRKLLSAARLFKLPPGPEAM
UniProt Q96EU6: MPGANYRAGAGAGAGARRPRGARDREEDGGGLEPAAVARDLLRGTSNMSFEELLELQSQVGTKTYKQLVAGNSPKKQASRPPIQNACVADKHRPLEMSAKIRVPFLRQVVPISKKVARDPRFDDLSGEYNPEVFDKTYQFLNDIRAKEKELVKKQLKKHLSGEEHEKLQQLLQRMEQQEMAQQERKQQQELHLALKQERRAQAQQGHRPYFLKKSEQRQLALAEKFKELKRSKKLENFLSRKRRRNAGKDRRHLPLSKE
UniProt Q5VWQ0: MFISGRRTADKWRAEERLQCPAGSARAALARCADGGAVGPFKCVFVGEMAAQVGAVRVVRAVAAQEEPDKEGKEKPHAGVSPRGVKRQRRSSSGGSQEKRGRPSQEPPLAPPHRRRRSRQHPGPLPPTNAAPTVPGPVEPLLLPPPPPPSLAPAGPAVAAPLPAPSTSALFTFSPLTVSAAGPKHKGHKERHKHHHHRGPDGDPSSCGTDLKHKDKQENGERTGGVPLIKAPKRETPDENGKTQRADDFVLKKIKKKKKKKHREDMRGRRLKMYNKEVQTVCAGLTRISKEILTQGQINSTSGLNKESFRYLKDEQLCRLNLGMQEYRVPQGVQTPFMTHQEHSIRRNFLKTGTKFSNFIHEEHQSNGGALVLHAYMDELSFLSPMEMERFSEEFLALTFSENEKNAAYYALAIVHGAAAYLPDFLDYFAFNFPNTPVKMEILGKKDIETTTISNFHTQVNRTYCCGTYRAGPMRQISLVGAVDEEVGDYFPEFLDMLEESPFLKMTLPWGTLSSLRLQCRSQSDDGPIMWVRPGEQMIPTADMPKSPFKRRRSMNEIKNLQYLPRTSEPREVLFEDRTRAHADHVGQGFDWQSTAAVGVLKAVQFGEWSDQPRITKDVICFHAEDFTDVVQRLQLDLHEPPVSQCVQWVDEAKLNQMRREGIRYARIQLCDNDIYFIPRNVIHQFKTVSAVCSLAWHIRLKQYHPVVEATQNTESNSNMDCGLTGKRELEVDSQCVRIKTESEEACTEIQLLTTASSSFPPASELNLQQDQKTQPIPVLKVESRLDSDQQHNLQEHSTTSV
UniProt O00422: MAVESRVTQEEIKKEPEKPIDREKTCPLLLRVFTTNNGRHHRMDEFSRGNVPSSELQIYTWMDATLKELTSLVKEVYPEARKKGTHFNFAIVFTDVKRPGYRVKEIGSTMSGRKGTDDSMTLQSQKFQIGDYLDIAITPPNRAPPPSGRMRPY
UniProt Q96IZ7: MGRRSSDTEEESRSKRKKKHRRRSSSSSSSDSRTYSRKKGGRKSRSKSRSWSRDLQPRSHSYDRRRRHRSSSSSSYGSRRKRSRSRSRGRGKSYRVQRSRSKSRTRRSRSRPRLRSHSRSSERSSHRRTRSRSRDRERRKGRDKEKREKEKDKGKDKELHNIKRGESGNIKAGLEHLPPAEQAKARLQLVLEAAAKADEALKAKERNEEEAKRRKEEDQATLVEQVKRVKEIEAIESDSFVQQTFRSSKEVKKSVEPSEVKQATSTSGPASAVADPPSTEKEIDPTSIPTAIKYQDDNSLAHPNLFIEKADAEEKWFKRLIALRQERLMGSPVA
UniProt Q6P3W7: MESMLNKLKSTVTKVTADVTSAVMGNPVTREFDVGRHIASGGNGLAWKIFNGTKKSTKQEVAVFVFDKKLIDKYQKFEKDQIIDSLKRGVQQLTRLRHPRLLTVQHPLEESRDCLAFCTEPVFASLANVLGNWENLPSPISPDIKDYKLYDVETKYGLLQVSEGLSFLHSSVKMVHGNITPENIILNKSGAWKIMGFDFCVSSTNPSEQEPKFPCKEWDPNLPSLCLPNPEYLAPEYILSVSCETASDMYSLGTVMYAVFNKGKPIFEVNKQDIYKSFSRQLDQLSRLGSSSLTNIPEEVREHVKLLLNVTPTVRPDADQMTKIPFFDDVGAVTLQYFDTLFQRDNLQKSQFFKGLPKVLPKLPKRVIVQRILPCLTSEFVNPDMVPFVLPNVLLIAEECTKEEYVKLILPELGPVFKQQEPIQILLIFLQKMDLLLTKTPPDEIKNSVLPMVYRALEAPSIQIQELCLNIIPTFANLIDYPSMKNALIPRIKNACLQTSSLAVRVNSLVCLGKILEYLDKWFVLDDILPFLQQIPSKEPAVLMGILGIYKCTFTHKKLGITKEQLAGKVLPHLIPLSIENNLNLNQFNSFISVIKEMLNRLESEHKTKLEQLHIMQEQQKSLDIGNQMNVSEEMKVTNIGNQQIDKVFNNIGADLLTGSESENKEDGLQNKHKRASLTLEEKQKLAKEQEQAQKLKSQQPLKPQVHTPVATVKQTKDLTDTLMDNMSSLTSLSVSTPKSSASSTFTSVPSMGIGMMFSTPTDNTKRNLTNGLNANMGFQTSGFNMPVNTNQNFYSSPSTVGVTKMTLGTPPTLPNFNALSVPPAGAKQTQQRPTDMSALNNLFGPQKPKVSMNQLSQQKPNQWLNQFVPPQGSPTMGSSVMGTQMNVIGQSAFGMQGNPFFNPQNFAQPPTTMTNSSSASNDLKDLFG
UniProt Q9H446: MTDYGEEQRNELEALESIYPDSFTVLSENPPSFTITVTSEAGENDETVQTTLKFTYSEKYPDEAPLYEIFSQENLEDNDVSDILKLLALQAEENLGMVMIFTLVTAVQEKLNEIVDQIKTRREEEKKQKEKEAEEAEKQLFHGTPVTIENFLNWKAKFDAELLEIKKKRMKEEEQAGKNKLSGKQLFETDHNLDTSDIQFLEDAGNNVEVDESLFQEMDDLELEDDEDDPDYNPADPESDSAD
UniProt Q8WWV3: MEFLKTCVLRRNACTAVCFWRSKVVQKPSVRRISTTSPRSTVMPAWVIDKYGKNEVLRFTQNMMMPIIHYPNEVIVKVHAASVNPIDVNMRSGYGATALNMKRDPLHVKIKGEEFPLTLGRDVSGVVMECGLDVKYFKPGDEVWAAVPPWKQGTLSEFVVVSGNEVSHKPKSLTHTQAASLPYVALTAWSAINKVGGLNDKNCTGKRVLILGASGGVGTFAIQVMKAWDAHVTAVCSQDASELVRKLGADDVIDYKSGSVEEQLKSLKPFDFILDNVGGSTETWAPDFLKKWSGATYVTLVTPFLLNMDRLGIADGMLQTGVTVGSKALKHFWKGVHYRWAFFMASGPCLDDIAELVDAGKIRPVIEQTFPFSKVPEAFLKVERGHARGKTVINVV
UniProt Q9NX18: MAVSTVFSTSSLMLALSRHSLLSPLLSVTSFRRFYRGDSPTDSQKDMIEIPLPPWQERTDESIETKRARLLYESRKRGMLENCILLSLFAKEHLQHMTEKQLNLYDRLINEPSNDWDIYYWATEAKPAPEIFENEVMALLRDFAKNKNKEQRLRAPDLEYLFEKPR
UniProt Q96BU1: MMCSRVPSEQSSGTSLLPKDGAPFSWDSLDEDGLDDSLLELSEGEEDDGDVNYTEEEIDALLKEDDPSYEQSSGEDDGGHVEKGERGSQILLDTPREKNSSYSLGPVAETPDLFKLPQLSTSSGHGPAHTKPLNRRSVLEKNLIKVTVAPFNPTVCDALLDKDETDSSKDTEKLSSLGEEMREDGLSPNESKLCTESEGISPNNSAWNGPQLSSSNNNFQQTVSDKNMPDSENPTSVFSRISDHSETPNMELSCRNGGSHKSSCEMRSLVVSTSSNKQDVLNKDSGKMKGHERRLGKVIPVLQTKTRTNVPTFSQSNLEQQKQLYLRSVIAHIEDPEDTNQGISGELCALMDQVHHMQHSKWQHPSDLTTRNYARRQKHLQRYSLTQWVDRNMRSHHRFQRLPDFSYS
UniProt Q6NW29: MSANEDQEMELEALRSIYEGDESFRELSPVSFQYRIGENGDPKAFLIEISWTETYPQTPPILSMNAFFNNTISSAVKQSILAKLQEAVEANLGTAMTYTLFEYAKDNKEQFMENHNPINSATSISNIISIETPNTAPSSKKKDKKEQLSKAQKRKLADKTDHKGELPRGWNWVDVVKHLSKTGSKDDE
UniProt Q9Y3I0: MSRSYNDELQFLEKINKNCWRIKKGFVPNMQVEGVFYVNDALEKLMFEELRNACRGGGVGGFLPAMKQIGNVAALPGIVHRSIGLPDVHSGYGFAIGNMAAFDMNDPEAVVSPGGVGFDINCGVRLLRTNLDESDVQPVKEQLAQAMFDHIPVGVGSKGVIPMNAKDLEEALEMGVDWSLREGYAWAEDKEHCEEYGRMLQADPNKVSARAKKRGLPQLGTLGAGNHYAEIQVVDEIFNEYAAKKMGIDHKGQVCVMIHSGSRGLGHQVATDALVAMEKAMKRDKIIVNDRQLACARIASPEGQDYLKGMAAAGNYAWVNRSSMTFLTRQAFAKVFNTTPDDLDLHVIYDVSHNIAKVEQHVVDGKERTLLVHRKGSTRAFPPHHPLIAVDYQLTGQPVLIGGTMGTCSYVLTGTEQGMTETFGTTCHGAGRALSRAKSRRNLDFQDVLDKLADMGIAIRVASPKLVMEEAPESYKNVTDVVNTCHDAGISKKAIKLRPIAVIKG
UniProt Q99643: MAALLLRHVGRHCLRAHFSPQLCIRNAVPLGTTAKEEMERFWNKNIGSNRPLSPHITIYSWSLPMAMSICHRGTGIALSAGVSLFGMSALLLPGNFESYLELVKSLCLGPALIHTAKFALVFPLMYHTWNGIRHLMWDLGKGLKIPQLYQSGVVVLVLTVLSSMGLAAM
UniProt Q9NRP4: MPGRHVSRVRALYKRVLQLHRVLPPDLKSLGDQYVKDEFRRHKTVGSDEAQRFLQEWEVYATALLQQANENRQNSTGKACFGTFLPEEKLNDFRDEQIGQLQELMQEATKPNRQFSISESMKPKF
UniProt Q9Y6B6: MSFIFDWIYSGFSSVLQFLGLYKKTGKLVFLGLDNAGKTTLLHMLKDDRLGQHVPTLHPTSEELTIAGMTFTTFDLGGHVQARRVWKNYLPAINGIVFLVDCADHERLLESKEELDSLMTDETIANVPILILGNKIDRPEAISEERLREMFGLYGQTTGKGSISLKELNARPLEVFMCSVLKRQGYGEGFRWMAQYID
UniProt Q9Y3A5: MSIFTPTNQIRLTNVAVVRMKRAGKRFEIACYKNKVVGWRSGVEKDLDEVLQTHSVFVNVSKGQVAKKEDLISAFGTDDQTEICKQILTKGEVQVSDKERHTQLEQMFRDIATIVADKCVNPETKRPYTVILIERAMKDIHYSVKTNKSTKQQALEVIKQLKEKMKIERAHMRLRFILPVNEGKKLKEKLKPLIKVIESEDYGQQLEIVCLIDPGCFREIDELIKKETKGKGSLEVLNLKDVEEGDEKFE

What follows are targets tested with O=C(CCCCCCC(=O)Nc1ccccc1)NO [vorinostat] (assay: log2 fold change, soluble protein after heating vs DMSO (PISA); higher = thermal stabilisation; K562 cells, 10 uM, 30 min; active = over 0.2 and 3.5 SD of the protein, either way, in both replicates (recomputed)).
In short: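 K562 cells at 2×10^6 cells/mL were given 10 μM compound for 30 min. Aliquots then went through 3 min of heating across 48°C-58°C, were pooled, and were extracted in PBS with 0.5% NP-40 at 4°C, and the supernatant after 21,000xg for 90 min was quantified by TMTpro 16plex LC-MS/MS with channel sums equalised. Thermal stability relative to control samples, from duplicates, is given as log2 fold change.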

Row | Target | log2 fold change
1 | S100A11 (UniProt P31949) | inactive: -0.183
2 | SASH1 (UniProt O94885) | inactive: 0.077
3 | RRP36 (UniProt Q96EU6) | inactive: -0.024
4 | SEC11A isoform 3 (UniProt P67812) | inactive: 0
5 | SCAF8 isoform 2 (UniProt Q9UPN6) | inactive: 0.166
6 | RSBN1 (UniProt Q5VWQ0) | inactive: -0.04
7 | SAP18 isoform 2 (UniProt O00422) | inactive: -0.031
8 | SCARB2 (UniProt Q14108) | inactive: -0.056
9 | RSRC1 (UniProt Q96IZ7) | inactive: 0.022
10 | SEC23IP (UniProt Q9Y6Y8) | inactive: 0.065
11 | SCYL2 (UniProt Q6P3W7) | inactive: 0.011
12 | RWDD1 (UniProt Q9H446) | inactive: 0.028
13 | RTN4IP1 (UniProt Q8WWV3) | inactive: 0.111
14 | SDHAF2 (UniProt Q9NX18) | inactive: -0.156
15 | SCFD2 (UniProt Q8WU76) | inactive: 0.085
16 | S100PBP (UniProt Q96BU1) | inactive: 0.063
17 | RWDD4 (UniProt Q6NW29) | inactive: 0.03
18 | SAFB isoform 3 (UniProt Q15424) | inactive: -0.016
19 | RTCB (UniProt Q9Y3I0) | inactive: 0.007
20 | SDHC (UniProt Q99643) | inactive: -0.042
21 | SDHAF3 (UniProt Q9NRP4) | inactive: 0.024
22 | SAR1B (UniProt Q9Y6B6) | inactive: 0.002
23 | SBDS (UniProt Q9Y3A5) | inactive: 0.068

Quoted from above: entries 11–12
Row | Target | log2 fold change
11 | SCYL2 (UniProt Q6P3W7) | inactive: 0.011
12 | RWDD1 (UniProt Q9H446) | inactive: 0.028
